Measured data: PubChem BioAssay AID504793 (Drosophila RNAi Screening Center, 2011)
In all, the deposit lists about 23,000 reagents; below is an unselected part of those with a known target gene and a result. In the full data, 62 (0.27%) are marked active. 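Calls come from follow-up tests whose scores are not deposited, so confirmed genes may have low counts here; counts are not normalised per plate.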 The raw values are shown without normalisation. The numbers tell different reagents against one gene apart. A plus sign joins genes that one reagent is predicted to hit. Reagent sequences are not shown.

Screen: 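Knock-downs allowing continued mitosis even though DNA is damaged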 (primary screen)
Cell system: Drosophila S2R+ cells
Reagent: long dsRNA against Drosophila genes, about 0.25 µg dsRNA per well
Time to read-out: 4 days of dsRNA, then 4 hours of drug before read-out
Challenge: doxorubicin 0.5 µM for 4 hours to cause double-strand breaks, in cells also given a low, harmless dose of dsRNA against nbs to sensitise the assay
Read-out: 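Per-well count of mitotic cells stained for phospho-histone H3 after doxorubicin exposure, used as mitotic index; counts are raw and not normalised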
Scale: mitotic cells: higher = more cells in mitosis, weaker G2 arrest
Rule for the call: 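a call needs confirmation in secondary tests, with other dsRNAs and a check of mitotic timing without damage, not just a high primary count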
Meaning of the calls: active = confirmed in follow-up tests; inactive = not confirmed

{"target":"piwi","dsRNA no.":1,"mitotic cells, replicate 1":4,"outcome":"inactive"}
{"target":"CG4612","dsRNA no.":1,"mitotic cells, replicate 1":6,"outcome":"inactive"}
{"target":"CG5938","dsRNA no.":1,"mitotic cells, replicate 1":8,"outcome":"inactive"}
{"target":"CG5938","dsRNA no.":2,"mitotic cells, replicate 1":14,"outcome":"inactive"}
{"target":"CG14810","dsRNA no.":1,"mitotic cells, replicate 1":37,"outcome":"inactive"}
{"target":"CG14810","dsRNA no.":2,"mitotic cells, replicate 1":16,"outcome":"inactive"}
{"target":"CG14810","dsRNA no.":3,"mitotic cells, replicate 1":15,"outcome":"inactive"}
{"target":"CG33454","dsRNA no.":1,"mitotic cells, replicate 1":12,"outcome":"inactive"}
{"target":"CG33454","dsRNA no.":2,"mitotic cells, replicate 1":3,"outcome":"inactive"}
{"target":"CG33172","dsRNA no.":1,"mitotic cells, replicate 1":3,"outcome":"inactive"}
{"target":"CG5921","dsRNA no.":1,"mitotic cells, replicate 1":20,"outcome":"inactive"}
{"target":"CG5921","dsRNA no.":2,"mitotic cells, replicate 1":8,"outcome":"inactive"}
{"target":"CG5921","dsRNA no.":3,"mitotic cells, replicate 1":5,"outcome":"inactive"}
{"target":"twe","dsRNA no.":1,"mitotic cells, replicate 1":1,"outcome":"inactive"}
{"target":"twe","dsRNA no.":2,"mitotic cells, replicate 1":5,"outcome":"inactive"}
{"target":"RecQ5","dsRNA no.":1,"mitotic cells, replicate 1":3,"outcome":"inactive"}
{"target":"CRMP","dsRNA no.":1,"mitotic cells, replicate 1":9,"outcome":"inactive"}
{"target":"CRMP","dsRNA no.":2,"mitotic cells, replicate 1":4,"outcome":"inactive"}
{"target":"CRMP","dsRNA no.":3,"mitotic cells, replicate 1":12,"outcome":"inactive"}
{"target":"boca","dsRNA no.":1,"mitotic cells, replicate 1":5,"outcome":"inactive"}
{"target":"Eip75B","dsRNA no.":1,"mitotic cells, replicate 1":11,"outcome":"inactive"}
{"target":"Eip75B","dsRNA no.":2,"mitotic cells, replicate 1":15,"outcome":"inactive"}
{"target":"CG5608","dsRNA no.":1,"mitotic cells, replicate 1":8,"outcome":"inactive"}
{"target":"Tsp42Ec","dsRNA no.":1,"mitotic cells, replicate 1":5,"outcome":"inactive"}
{"target":"Tsp42Ec","dsRNA no.":2,"mitotic cells, replicate 1":4,"outcome":"inactive"}
{"target":"PsGEF (retired record)","dsRNA no.":1,"mitotic cells, replicate 1":7,"outcome":"inactive"}

The list goes on (2 carried over from the part before).
{"target":"Tsp42Ec","dsRNA no.":2,"mitotic cells, replicate 1":4,"outcome":"inactive"}
{"target":"PsGEF (retired record)","dsRNA no.":1,"mitotic cells, replicate 1":7,"outcome":"inactive"}
{"target":"CG17154","dsRNA no.":1,"mitotic cells, replicate 1":3,"outcome":"inactive"}
{"target":"da","dsRNA no.":1,"mitotic cells, replicate 1":3,"outcome":"inactive"}
{"target":"CG15353","dsRNA no.":1,"mitotic cells, replicate 1":2,"outcome":"inactive"}
{"target":"CG15353","dsRNA no.":2,"mitotic cells, replicate 1":2,"outcome":"inactive"}
{"target":"Syn1 + CG7370","dsRNA no.":1,"mitotic cells, replicate 1":11,"outcome":"inactive"}
{"target":"Syn1 + CG7370","dsRNA no.":2,"mitotic cells, replicate 1":4,"outcome":"inactive"}
{"target":"CG40005 (retired record) + cta","dsRNA no.":1,"mitotic cells, replicate 1":7,"outcome":"inactive"}
{"target":"CG5149","dsRNA no.":1,"mitotic cells, replicate 1":8,"outcome":"inactive"}
{"target":"CG5149","dsRNA no.":2,"mitotic cells, replicate 1":5,"outcome":"inactive"}
{"target":"Pgant9","dsRNA no.":1,"mitotic cells, replicate 1":19,"outcome":"inactive"}
{"target":"Pgant9","dsRNA no.":2,"mitotic cells, replicate 1":4,"outcome":"inactive"}
{"target":"Pgant9","dsRNA no.":3,"mitotic cells, replicate 1":7,"outcome":"inactive"}
{"target":"Pgant9","dsRNA no.":4,"mitotic cells, replicate 1":7,"outcome":"inactive"}
{"target":"Pgant9","dsRNA no.":5,"mitotic cells, replicate 1":9,"outcome":"inactive"}
{"target":"Pgant9","dsRNA no.":6,"mitotic cells, replicate 1":5,"outcome":"inactive"}
{"target":"CG13972","dsRNA no.":1,"mitotic cells, replicate 1":14,"outcome":"inactive"}
{"target":"CG13972","dsRNA no.":2,"mitotic cells, replicate 1":5,"outcome":"inactive"}
